The record followed here is paper PMC11551737, “Structural and functional insights into the interaction between the bacteriophage T4 DNA processing proteins gp32 and Dda” (Nucleic Acids Research, 2024).

Assay [1] addresses T1, bacteriophage T4 helicase Dda, ATPase deficient mutant K38A (bacteriophage T4) (UniProt P32270).
T1 sequence: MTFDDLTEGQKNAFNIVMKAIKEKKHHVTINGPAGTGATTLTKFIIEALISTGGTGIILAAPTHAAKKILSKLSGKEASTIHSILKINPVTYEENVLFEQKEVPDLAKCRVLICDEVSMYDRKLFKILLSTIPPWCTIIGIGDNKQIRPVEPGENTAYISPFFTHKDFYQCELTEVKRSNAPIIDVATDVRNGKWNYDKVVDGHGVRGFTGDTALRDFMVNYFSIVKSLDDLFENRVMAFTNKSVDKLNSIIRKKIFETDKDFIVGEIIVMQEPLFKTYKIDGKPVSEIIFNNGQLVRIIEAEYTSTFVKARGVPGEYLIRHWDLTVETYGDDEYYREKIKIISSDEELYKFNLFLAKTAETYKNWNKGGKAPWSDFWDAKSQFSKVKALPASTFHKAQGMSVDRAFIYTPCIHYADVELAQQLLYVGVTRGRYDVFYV
Put plainly: SPR; SPR analysis 1: Biacore 3000, 25°C; His-tagged Dda-K38A/dT20 immobilised on an NTA chip by capture-coupling (~5800 RU); peptides injected, 4-fold dilution series, maximum 100 μM; 20 mM Tris-acetate pH 8.0, 150 mM NaCl, 10 mM magnesium acetate, 3 mM potassium glutamate, 1 mM TCEP, 0.05% Tween20, 10% glycerol; steady-state fit, 1:1 model; both purified. On the technique in general: In SPR one partner is held on a chip, and binding of the other changes the refractive index at the surface.

Assay [2] addresses T2, bacteriophage T4 helicase Dda, wild type (bacteriophage T4) (UniProt P32270).
T2 sequence: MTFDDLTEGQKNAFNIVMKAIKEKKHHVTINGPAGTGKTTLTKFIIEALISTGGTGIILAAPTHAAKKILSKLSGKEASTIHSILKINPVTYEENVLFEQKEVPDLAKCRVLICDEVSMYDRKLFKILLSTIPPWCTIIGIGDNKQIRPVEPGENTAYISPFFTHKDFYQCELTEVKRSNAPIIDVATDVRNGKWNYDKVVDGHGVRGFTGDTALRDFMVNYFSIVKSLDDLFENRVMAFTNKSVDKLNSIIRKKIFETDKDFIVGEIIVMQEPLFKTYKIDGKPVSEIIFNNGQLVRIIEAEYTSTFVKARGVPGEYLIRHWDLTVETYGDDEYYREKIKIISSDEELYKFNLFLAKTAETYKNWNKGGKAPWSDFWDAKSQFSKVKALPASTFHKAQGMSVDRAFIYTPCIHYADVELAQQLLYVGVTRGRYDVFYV
Kind of assay: SPR; SPR analysis 2: Biacore T200, 25°C; wild-type Dda/dT20 immobilised on an NTA chip as in SPR analysis 1; peptides injected, 2-fold dilution series, 100 μM to 0.78 μM; steady-state analysis; both purified.

The target in assay [3] is T2, bacteriophage T4 helicase Dda, wild type (bacteriophage T4). Described as above. The source holds these as a separate data set.
In assay [4] the target is T1, bacteriophage T4 helicase Dda, ATPase deficient mutant K38A (bacteriophage T4). Kind of assay: AUC; sedimentation velocity, 20°C, 42 000 rpm; 20 mM Tris pH 7.0, 200 mM NaCl, 0.5 mM EDTA, 5 mM β-mercaptoethanol; Dda-K38A at 1.70 μM; both purified.

Like-named read-outs stand apart in the source and are kept apart here. No constants are given. Whether binding was seen depends on the method and setting. Some results given as binding are weak or reduced against the parent protein; the word gives no strength.

Take “gp32 C-terminal peptide 240–253 (from UniProt P03695 240-253)”: in assay [1], the binding entry is listed as “no binding (tested: 100 μM)”. Take “gp32 C-terminal peptide 240–255 (from UniProt P03695 240-255)”: the binding result in assay [2] and in assay [1] was “no binding (tested: 100 μM)” throughout.

For NTKTEDDFMSSSSGSSSSADDTDLDDLLNDL [gp32 C-terminal peptide 271–301], the binding result in assay [3] is recorded as “binds weakly”.

B1: bacteriophage T4 helicase Dda, ATPase deficient mutant K38A (enzyme, UniProt P32270 1-439)
chain: MTFDDLTEGQKNAFNIVMKAIKEKKHHVTINGPAGTGATTLTKFIIEALISTGGTGIILAAPTHAAKKILSKLSGKEASTIHSILKINPVTYEENVLFEQKEVPDLAKCRVLICDEVSMYDRKLFKILLSTIPPWCTIIGIGDNKQIRPVEPGENTAYISPFFTHKDFYQCELTEVKRSNAPIIDVATDVRNGKWNYDKVVDGHGVRGFTGDTALRDFMVNYFSIVKSLDDLFENRVMAFTNKSVDKLNSIIRKKIFETDKDFIVGEIIVMQEPLFKTYKIDGKPVSEIIFNNGQLVRIIEAEYTSTFVKARGVPGEYLIRHWDLTVETYGDDEYYREKIKIISSDEELYKFNLFLAKTAETYKNWNKGGKAPWSDFWDAKSQFSKVKALPASTFHKAQGMSVDRAFIYTPCIHYADVELAQQLLYVGVTRGRYDVFYV
As to B1, in assay [4], the binding entry is “no binding (tested: 1.70 μM)”.
